Assay results taken from publication PMC12663577.
No constants are given. Whether binding was seen depends on the method and setting. In cells and extracts the contact can be indirect. Some binding calls cover weakened binding; strength is not graded here. For some of these results: Tags and fused reporters may be left off the sequences shown. One block for each substance: values may come before it.

Sequences of proteins named here, by UniProt entry; tags and fusion partners are left off. A change or cut given only in a name is not applied to a line headed by its entry.
UniProt Q96E35: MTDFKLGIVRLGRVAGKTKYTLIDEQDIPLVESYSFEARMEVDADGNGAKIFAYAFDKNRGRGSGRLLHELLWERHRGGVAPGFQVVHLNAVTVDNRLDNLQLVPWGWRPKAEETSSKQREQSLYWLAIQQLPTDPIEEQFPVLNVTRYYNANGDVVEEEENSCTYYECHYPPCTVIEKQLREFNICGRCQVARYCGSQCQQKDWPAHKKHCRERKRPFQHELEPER
UniProt Q8N122: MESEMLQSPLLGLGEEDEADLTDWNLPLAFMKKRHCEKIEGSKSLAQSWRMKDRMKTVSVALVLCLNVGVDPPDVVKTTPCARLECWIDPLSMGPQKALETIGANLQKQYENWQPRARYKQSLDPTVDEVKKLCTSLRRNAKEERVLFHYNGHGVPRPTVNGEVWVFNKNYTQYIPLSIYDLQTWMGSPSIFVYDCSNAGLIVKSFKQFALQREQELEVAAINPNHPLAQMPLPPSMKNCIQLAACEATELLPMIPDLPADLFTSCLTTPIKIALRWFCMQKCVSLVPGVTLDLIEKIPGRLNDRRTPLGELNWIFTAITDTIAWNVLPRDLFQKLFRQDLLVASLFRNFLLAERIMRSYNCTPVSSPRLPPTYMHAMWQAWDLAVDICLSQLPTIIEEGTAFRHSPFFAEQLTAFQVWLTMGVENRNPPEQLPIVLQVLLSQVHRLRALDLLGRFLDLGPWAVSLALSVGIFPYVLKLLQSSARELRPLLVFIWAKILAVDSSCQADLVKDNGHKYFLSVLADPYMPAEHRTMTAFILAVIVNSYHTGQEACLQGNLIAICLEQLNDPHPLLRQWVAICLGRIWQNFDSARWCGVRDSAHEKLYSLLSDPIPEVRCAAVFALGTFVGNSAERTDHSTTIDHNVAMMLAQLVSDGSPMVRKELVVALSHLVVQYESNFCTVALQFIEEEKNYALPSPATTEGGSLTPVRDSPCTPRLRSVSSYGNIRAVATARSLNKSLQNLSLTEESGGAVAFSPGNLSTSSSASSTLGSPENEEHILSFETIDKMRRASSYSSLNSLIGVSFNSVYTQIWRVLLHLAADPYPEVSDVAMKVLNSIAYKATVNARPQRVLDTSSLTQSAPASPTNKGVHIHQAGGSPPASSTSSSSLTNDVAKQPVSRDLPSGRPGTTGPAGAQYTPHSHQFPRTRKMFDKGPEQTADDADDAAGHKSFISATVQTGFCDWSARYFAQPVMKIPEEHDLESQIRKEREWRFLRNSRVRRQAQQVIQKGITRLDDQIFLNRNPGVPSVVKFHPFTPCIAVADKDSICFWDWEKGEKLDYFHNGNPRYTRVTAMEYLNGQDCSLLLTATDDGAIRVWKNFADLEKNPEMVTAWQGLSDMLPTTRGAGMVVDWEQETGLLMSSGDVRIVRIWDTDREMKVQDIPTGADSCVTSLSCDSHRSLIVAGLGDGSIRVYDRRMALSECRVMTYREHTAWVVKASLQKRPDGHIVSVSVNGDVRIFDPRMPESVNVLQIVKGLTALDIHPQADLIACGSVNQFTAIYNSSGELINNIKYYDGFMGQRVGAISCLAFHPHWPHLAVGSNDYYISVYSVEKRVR
UniProt P23443: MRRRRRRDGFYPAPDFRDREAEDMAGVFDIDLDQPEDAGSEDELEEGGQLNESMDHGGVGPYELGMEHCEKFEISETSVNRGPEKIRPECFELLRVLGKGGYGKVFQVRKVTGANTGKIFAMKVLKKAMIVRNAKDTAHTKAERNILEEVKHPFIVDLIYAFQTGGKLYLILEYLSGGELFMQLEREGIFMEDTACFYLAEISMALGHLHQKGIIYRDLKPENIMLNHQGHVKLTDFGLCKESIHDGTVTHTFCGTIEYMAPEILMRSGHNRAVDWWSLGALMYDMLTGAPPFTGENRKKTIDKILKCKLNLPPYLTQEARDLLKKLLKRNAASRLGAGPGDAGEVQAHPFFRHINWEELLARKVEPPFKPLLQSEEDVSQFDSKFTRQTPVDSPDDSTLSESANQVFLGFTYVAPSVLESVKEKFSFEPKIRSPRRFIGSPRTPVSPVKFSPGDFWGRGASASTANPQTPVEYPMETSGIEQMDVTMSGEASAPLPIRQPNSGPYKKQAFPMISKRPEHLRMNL

Experiments:
[1] = target: FLAG-tagged MKLN1 and ZMYND19, co-expressed (ZMYND19/MKLN1) (UniProt Q96E35); assay: co-IP; anti-FLAG immunopurification from 293T transiently transfected with FLAG-tagged ZMYND19 and MKLN1, Myc-tagged Raptor and either HA-tagged Rheb or HA-tagged RagA and RagC (wild type or GTP/GDP-restricted point mutants); immunoblot
[2] = target: GFP-tagged Raptor (pLJM1-Raptor-GFP) (UniProt Q8N122); assay: co-IP; GFP-Trap agarose, 6 h at 4 °C, 293T control single cell clones transiently transfected with Rheb-V5 and Raptor-GFP or GFP; immunoblot
[3] = target: GFP-tagged Raptor (pLJM1-Raptor-GFP) (UniProt Q8N122); assay: co-IP; GFP-Trap agarose, 293T with stable Rheb-V5 expression transiently transfected with GFP or Raptor-GFP, without or with MKLN1 and ZMYND19 expression vectors; immunoblot
[4] = target: V5-tagged full-length ZMYND19 (UniProt Q96E35); assay: co-IP; anti-V5-tag magnetic beads, 3 h at 4 °C, lysates (IP lysis buffer) of cells stably expressing V5-tagged cDNAs from pLX-TRC313 lentivirus; YCCEL1 and 293T; ZMYND19 also from MKLN1 depleted cells; immunoblot
[5] = target: FLAG-ZMYND19 (UniProt Q96E35); assay: co-IP; anti-FLAG immunopurification from HEK-293T transiently transfected for 24 h with one FLAG-tagged bait and Raptor-MYC, no ZMYND19 co-expressed with the other baits; immunoblot
[6] = target: T1, TMEM192-FLAG (UniProt Q8IY95); assay: as above
T1 sequence: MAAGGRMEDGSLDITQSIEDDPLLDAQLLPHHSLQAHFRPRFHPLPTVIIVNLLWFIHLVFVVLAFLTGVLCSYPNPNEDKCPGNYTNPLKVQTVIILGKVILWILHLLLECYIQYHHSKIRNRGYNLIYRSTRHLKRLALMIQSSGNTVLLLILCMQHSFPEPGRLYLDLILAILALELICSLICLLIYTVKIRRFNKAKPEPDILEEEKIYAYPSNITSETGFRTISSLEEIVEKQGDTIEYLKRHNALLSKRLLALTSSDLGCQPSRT

[7] = target: S6K-Flag (pRK-S6K-Flag) (UniProt P23443); assay: co-IP; 293T co-transfected with pRK-S6K-Flag (or pRK-Metap2-Flag) and pLJM1-Raptor-GFP; control and MAEA KO cells (association impaired by MAEA KO); which tag was precipitated was not shown

- binding [4]: binds
Substance: Raptor (found with V5-tagged ZMYND19) (from UniProt Q8N122 1-1335)

- binding [5]: binds
- binding [6]: no binding
Substance: Myc-tagged Raptor (from UniProt Q8N122 1-1335)

The remaining lines, values behind:

Substance: HA-tagged Rheb (from UniProt Q15382 1-184)
- binding [1]: no binding

Substance: S6K (endogenous) (from UniProt P23443 1-525)
- binding [2]: binds
- binding [3]: binds

Substance: GFP-tagged Raptor (pLJM1-Raptor-GFP) (from UniProt Q8N122 1-1335)
- binding [7]: binds
